Measured values taken from PMC10572602, “Molecular Mechanism of STIL Coiled-Coil Domain Oligomerization” (International Journal of Molecular Sciences, 2023).

Test: X-ray crystal structure
Conditions: for mean RMSD of Q729L dimer to L736E dimer: over an average of 58 Cα atoms

| Substance | oligomeric state in the crystal (crystallized at 1.5 mM peptide, 50 mM cadmium chloride, 50 mM sodium acetate, 15% PEG 400, pH 4.6, 20 °C) | mean RMSD of Q729L dimer to L736E dimer [Å] | oligomeric state in the crystal (crystallized at 0.9 mM peptide, 50 mM Tris, pH 8.0, 10% v/v MPD, 4 °C) | RMSD between the three biological assemblies (over an average of 59 Cαs) [Å] | RMSD to PDB 5lhw (three biological assemblies of L736E dimer, over an average of 47 Cαs) [Å] |
| --- | --- | --- | --- | --- | --- |
| L SPDAYRF LTELDRQ LRLLQAQ IQRLLEA QSL-NH2 [STIL CCD718–749 Q729L, STIL CCD peptide with stabilising Q729L mutation; PDB 8oyl] | anti-parallel tetramer | 1.6 ± 0.5 | – | – | – |
| L SPDAYRF LTEQDRQ LRLEQAQ IQRLLEA QSL-NH2 [STIL CCD718–749 L736E, STIL CCD peptide with destabilising L736E mutation; PDB 8oyk] | – | 1.6 ± 0.5 | antiparallel dimer | 1.5 ± 0.5 | 6.1 ± 0.3 |
